Results on 2 substances are retold here after article PMC11845477, “Exploring the principles behind antibiotics with limited resistance” (Nature Communications, 2025).

The test system of this series is E. coli K12 BW25113 bearing the ASKA plasmid pool. As to the kind of experiment: Genome-wide overexpression (ASKA) library screening on antibiotic gradient plates. It is filed as cell-based, Escherichia coli. The note with it: genes with over 1% read coverage relative to total coverage per antibiotic.

With POL7306, the “Overexpressed gene (reduces antibiotic susceptibility upon overexpression)” value was “not found”. On to Tridecaptin M152-P3, for which the “Overexpressed gene (reduces antibiotic susceptibility upon overexpression)” value was “not found”.
